PubChem BioAssay AID720505 – Drosophila RNAi Screening Center – 2013
The deposit covers about 20,000 reagents; shown is a random part of those that have a named target and a result. Of all reagents, about 2,100 (10%) were called active. 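Raw plate signals without normalisation; calls rest on control-based scores that were not deposited; replicate 2 separates called from uncalled poorly.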 The numbers tell different reagents against one gene apart. Not given: the amount of reagent, the time to read-out.

Aim: 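Knock-downs that reduce calcium influx once internal stores are emptied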 (primary screen)
System: Drosophila S2R+ cells
Reagent: long dsRNA against Drosophila genes
Treatment: thapsigargin (2 µM) in calcium-free buffer to empty internal stores, then 2 mM calcium added back
Measured: 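Stores emptied by 2 µM thapsigargin without calcium, then 2 mM calcium re-added; fluo-4 fluorescence followed by FLIPR in 384-well plates, per-well averaged endpoint, raw; two screen passes, some wells retested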
Reading the numbers: calcium signal and retest calcium signal: higher = more calcium entry after store depletion
Call rule: 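About 1500 genes called as lowering calcium entry, by varying amounts, judged against per-plate control wells with STIM1 as positive and Rho1 as negative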
Meaning of the calls: active = called as lowering calcium entry; inactive = not called

Bug22 (Basal body up regulated gene 22) → calcium signal, replicate 1: 227; calcium signal, replicate 2: 184; Call: inactive
fig (fos intronic gene) → calcium signal, replicate 1: 139; calcium signal, replicate 2: 162; Call: inactive
Nepl6 (Neprilysin-like 6) → calcium signal, replicate 1: 127; calcium signal, replicate 2: 130; Call: inactive
Cyp301a1 (Cytochrome P450 301a1) → calcium signal, replicate 1: 140; calcium signal, replicate 2: 273; Call: inactive
GluRIA (Glutamate receptor IA) → calcium signal, replicate 1: 71.7; calcium signal, replicate 2: 75.4; Call: inactive
whe (what else) → calcium signal, replicate 1: 85.6; calcium signal, replicate 2: 107; Call: inactive
Dmtn (Dementin) → calcium signal, replicate 1: 105; calcium signal, replicate 2: 87.5; Call: inactive
Osi17 (Osiris 17) → calcium signal, replicate 1: 80.8; calcium signal, replicate 2: 99.4; Call: inactive
CG5011 → calcium signal, replicate 1: 116; calcium signal, replicate 2: 211; Call: inactive
CG7296 #1 → calcium signal, replicate 1: 93.4; calcium signal, replicate 2: 121; retest calcium signal, replicate 1: 110; retest calcium signal, replicate 2: 140; Call: inactive
CG7296 #2 → calcium signal, replicate 1: 92.1; calcium signal, replicate 2: 232; Call: inactive
CSN4 (COP9 signalosome subunit 4) → calcium signal, replicate 1: 79.1; calcium signal, replicate 2: 82.4; Call: inactive
CG42322 #1 → calcium signal, replicate 1: 166; calcium signal, replicate 2: 246; Call: inactive
CG42322 #2 → calcium signal, replicate 1: 140; calcium signal, replicate 2: 147; Call: inactive
CG42322 #3 → calcium signal, replicate 1: 149; calcium signal, replicate 2: 151; Call: inactive
trsn (translin) → calcium signal, replicate 1: 162; calcium signal, replicate 2: 140; Call: inactive
CG1824 → calcium signal, replicate 1: 66.8; calcium signal, replicate 2: 86.2; Call: inactive
DIP2 (DISCO Interacting Protein 2) → calcium signal, replicate 1: 72.8; calcium signal, replicate 2: 113; Call: active
CG14739 → calcium signal, replicate 1: 104; calcium signal, replicate 2: 96.1; Call: inactive
